Assay results published in publication doi:10.1101/2023.07.12.548668.
These are yes or no findings as the source states them, for the method shown. Some results given as binding are weak or reduced against the parent protein; the word gives no strength.

The chains behind the UniProt entries cited, without tags or fusion partners. Residues count along the entry.
XLF_(1-224) (folded domain of XLF) (Q9H9Q4, residues 1-224): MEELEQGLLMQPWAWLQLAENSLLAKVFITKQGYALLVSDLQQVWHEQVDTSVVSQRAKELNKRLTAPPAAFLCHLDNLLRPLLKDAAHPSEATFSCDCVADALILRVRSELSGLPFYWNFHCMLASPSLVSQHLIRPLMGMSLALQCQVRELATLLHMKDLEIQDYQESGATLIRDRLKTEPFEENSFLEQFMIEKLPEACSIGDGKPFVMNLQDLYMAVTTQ
XLFCTR (C-terminal region of XLF, residues 229-299) (Q9H9Q4, residues 229-299): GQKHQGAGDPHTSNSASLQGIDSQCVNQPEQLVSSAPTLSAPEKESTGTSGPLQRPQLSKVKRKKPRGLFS

Molecular target: XLFCTR (C-terminal region of XLF, residues 229-299) (UniProt Q9H9Q4)
Test: NMR titration; 250 uM 15N XLFCTR with one or two equivalents of unlabelled XLF_(1-224); 1H-15N HSQC chemical shifts and 15N R2; 298 K, 20 mM BisTris pH 6.5, 150 mM KCl; both purified

binding: binds weakly
Substance: XLF_(1-224) (folded domain of XLF) (from UniProt Q9H9Q4 1-224) (domain or fragment)
